Laboratory results taken from doi:10.1101/2022.01.18.476601.
These are yes or no findings as the source states them, for the method shown. In cells and extracts the contact can be indirect. Some binding calls cover weakened binding; strength is not graded here.

Amino acid sequences for entries named in this document (tags omitted).
UniProt Q13936: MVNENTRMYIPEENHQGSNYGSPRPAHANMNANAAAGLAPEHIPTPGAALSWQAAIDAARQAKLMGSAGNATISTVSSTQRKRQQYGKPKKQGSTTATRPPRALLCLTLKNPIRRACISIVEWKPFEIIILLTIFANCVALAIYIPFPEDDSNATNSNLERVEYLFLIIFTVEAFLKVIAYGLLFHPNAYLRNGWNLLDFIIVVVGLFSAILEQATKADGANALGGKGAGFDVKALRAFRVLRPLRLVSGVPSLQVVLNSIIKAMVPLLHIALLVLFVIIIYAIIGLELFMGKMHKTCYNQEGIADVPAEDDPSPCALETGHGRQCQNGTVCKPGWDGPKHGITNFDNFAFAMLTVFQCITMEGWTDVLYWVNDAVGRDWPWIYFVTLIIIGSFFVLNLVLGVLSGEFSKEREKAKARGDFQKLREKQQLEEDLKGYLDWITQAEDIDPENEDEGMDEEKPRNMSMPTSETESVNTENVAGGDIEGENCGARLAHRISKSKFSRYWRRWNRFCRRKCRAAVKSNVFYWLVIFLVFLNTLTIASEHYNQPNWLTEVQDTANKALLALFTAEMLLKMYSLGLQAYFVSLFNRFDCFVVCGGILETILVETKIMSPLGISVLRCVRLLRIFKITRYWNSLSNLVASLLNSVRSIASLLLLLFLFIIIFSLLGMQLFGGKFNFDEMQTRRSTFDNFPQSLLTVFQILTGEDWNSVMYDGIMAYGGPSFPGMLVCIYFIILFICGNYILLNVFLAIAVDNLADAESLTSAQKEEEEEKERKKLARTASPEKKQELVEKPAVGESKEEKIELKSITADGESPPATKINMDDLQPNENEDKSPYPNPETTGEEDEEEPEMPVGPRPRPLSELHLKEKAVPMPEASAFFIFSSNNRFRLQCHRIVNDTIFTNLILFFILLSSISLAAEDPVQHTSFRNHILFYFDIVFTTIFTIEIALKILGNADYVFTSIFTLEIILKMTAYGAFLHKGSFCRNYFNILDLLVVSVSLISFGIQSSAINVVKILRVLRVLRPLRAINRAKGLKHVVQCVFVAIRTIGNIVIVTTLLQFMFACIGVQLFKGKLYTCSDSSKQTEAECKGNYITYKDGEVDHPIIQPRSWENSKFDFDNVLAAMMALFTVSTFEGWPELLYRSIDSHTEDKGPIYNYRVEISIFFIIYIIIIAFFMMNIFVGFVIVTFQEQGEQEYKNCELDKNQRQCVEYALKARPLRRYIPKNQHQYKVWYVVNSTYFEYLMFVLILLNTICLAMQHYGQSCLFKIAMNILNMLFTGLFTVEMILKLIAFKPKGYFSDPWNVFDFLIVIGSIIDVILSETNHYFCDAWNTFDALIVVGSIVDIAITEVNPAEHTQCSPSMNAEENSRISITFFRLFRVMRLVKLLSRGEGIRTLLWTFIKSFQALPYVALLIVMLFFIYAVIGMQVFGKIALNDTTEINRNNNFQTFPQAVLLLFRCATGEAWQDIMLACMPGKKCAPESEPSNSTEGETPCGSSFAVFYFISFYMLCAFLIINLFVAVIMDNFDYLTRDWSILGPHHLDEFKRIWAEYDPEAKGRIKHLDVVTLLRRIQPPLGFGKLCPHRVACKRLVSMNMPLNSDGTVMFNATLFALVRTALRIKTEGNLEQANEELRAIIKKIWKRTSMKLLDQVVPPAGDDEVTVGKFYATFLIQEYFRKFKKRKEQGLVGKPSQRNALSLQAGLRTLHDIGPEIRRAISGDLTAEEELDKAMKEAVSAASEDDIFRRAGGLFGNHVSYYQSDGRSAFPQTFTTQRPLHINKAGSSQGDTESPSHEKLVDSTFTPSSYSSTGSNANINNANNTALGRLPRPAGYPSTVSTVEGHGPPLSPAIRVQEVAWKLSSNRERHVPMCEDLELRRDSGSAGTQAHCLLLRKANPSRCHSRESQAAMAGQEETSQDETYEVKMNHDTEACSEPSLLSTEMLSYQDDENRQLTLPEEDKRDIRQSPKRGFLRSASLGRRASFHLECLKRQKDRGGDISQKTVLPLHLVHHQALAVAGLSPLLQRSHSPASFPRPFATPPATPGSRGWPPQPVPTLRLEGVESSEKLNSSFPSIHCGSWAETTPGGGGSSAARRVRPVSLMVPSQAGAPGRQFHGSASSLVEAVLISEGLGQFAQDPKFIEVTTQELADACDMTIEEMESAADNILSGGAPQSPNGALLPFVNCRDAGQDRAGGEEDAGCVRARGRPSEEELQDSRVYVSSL
UniProt Q01668: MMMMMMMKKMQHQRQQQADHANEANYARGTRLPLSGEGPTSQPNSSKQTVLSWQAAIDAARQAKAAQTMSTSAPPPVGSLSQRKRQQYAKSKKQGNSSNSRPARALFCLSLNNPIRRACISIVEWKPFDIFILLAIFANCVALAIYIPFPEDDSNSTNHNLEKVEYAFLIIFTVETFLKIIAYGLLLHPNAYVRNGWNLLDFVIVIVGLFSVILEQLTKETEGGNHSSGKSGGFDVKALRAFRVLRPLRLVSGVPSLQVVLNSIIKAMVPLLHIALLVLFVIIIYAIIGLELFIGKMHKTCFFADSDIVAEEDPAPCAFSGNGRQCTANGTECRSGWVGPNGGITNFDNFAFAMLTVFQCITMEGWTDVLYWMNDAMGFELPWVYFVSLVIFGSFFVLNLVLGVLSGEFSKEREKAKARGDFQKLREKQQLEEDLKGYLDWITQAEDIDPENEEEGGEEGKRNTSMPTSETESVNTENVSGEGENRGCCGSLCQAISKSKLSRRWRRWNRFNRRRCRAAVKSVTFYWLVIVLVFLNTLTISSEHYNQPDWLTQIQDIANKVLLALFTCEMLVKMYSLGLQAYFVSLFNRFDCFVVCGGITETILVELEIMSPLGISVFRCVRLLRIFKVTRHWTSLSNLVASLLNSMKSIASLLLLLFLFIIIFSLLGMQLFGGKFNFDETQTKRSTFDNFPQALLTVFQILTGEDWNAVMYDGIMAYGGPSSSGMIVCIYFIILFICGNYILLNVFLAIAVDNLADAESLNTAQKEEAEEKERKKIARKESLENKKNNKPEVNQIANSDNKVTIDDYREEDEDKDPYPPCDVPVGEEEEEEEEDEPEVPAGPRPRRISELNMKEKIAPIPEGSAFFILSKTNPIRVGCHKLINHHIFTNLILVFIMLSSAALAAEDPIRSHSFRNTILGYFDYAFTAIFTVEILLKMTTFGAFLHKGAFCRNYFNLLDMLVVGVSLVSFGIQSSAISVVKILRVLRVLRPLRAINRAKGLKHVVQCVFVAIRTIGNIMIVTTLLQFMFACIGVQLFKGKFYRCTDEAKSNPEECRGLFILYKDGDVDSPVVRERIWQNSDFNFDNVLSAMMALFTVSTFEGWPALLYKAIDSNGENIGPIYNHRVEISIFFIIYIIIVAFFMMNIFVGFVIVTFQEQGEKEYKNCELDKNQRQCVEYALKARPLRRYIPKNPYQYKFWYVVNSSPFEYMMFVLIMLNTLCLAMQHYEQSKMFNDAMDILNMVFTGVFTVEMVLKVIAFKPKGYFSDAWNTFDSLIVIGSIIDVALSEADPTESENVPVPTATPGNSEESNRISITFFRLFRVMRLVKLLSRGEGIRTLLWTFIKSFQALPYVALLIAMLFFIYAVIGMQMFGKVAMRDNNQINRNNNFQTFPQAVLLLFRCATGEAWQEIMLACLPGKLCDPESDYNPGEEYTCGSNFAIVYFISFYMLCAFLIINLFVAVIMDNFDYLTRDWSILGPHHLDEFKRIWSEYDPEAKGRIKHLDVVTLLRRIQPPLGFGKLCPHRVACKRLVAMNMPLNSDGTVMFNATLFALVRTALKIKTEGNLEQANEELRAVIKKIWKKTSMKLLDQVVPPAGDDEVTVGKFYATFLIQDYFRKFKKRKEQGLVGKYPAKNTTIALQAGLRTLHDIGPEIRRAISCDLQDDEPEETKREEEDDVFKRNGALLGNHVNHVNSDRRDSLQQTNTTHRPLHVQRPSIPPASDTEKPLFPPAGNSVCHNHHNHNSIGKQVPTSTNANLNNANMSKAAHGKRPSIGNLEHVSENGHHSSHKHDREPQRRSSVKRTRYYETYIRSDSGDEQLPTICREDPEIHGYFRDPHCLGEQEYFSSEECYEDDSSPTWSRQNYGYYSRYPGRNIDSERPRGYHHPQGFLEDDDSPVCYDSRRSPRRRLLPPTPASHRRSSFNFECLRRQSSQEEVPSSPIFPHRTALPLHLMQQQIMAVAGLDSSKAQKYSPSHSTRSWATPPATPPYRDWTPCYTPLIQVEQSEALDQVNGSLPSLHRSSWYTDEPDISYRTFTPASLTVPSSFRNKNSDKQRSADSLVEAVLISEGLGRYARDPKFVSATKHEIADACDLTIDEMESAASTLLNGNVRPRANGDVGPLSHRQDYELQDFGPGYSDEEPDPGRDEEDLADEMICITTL

Assays:
[1] = target: L-type voltage-gated calcium channel Cav1.2 (human (endogenous in ASCL1-hiNs)) (UniProt Q13936); experiment: proximity ligation
[2] = target: L-type voltage-gated calcium channel Cav1.3 (human (endogenous in ASCL1-hiNs)) (UniProt Q01668); experiment: proximity ligation

B1: Bridging Integrator 1 (BIN1) (protein, UniProt O00499 1-593)
chain: MAEMGSKGVTAGKIASNVQKKLTRAQEKVLQKLGKADETKDEQFEQCVQNFNKQLTEGTRLQKDLRTYLASVKAMHEASKKLNECLQEVYEPDWPGRDEANKIAENNDLLWMDYHQKLVDQALLTMDTYLGQFPDIKSRIAKRGRKLVDYDSARHHYESLQTAKKKDEAKIAKPVSLLEKAAPQWCQGKLQAHLVAQTNLLRNQAEEELIKAQKVFEEMNVDLQEELPSLWNSRVGFYVNTFQSIAGLEENFHKEMSKLNQNLNDVLVGLEKQHGSNTFTVKAQPSDNAPAKGNKSPSPPDGSPAATPEIRVNHEPEPAGGATPGATLPKSPSQLRKGPPVPPPPKHTPSKEVKQEQILSLFEDTFVPEISVTTPSQFEAPGPFSEQASLLDLDFDPLPPVTSPVKAPTPSGQSIPWDLWEPTESPAGSLPSGEPSAAEGTFAVSWPSQTAEPGPAQPAEASEVAGGTQPAAGAQEPGETAASEAASSSLPAVVVETFPATVNGTVEGGSGAGRLDLPPGFMFKVQAQHDYTATDTDELQLKAGDVVLVIPFQNPEEQDEGWLMGVKESDWNQHKELEKCRGVFPENFTERVP
[1]
  binding: binds
[2]
  binding: binds
